Measured values: PubChem BioAssay AID504467 (National Center for Advancing Translational Sciences (NCATS), 2011)
Among all 330,000 compounds or so, about 7,700 (2.3%) were called active. Inconclusive results, whose numbers are uncertain, are shown with a selection of clear calls. Calls follow the shape of the dose curve; as a rule, active = well fitted inhibition curve with a large enough effect; inconclusive = small, poorly fitted or top-dose-only effect, or effect the other way; inactive = flat fitted curve, though single readings scatter. Where the call is inconclusive, the potency comes from a doubtful curve fit.

Experiment: qHTS screen for small molecules that inhibit ELG1-dependent DNA repair in human embryonic kidney (HEK293T) cells expressing luciferase-tagged ELG1; also: nearly all actives have a fitted effect of over 55% in size
Conditions: HEK293T ELG1-luciferase reporter, luminescence, 16 h, DNA damage induced by 5-fluorouridine; activity change, negative = inhibition: at 46.1 µM (top of the series)
Procedure, shortened: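 Step one: seed 2,000 cells per well. Step two: pin-transfer compound or DMSO alongside 5-fluorouridine. Step three: incubate 16 hr, 37 °C, 5% CO2. Step four: add ONE-Glo, wait 30 min, read luminescence.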
% is scaled to controls: 0 for no effect and ±100 for the full control effect; potency is read from the fitted curve at half-maximal effect.

Structure (SMILES) | activity change, negative = inhibition | Potency
C=CC(=O)Nc1cccc(Oc2cc(Cl)nc3[nH]ccc23)c1 | inactive: -27% | 
COc1cccc(OCC(=O)N2CCC3(CC2)CC(=O)c2ccccc2O3)c1 | inactive: -5.53% | 
CC(NS(=O)(=O)c1ccc(OCC(=O)NCc2ccncc2)cc1)c1ccccc1 (stereo unspecified) | inactive: 8.22% | 
C[C@@H]1C(=O)O[C@H]2C[C@@]34[C@H]5C[C@@H](C(C)(C)C)[C@]36[C@@H](OC(=O)[C@@H]6O)O[C@@]4(C(=O)O5)[C@]21O | inactive: 12% | 
CCN(CC)Cc1cc(O)c(CN(CC)CC)cc1O | inactive: 11.5% | 
COC(=O)c1ccc(S(=O)(=O)N2CCc3ccccc32)cc1 |  | inconclusive: 9.2 µM [inhibitor, partial curve]
CN(C)S(=O)(=O)c1cccc(NC(=O)c2ccc(COc3ccccc3)cc2)c1 |  | active: 11.6 µM
COc1ccc(NC(=O)/C=C/c2cc(Br)ccc2OC)cc1 |  | inconclusive: 23.1 µM [inhibitor, partial curve, poor fit]
CCc1nnc(NC(=O)c2ccc3c(=O)n4c(nc3c2)CCCCC4)s1 |  | inconclusive: 20.6 µM [activator, single point]
CC(C)CCNC(=O)C(c1ccc(O)cc1)N(C(=O)C1COc2ccccc2O1)c1cccc(O)c1 (stereo unspecified) |  | inconclusive: 29.1 µM [inhibitor, single point]
O=[N+]([O-])c1cc(/C=N/Nc2nc3ccccc3[nH]2)c(O)cc1O |  | inconclusive: 29.1 µM [activator, single point]
Cc1ccc(NC(NC(=O)c2cccs2)C(Cl)(Cl)Cl)cc1 (stereo unspecified) | inactive: -11.9% | 
CCCCC(CCC(=O)Nc1nccs1)C(=O)O (stereo unspecified) |  | inconclusive: 32.6 µM [activator, partial curve, poor fit]
CCOc1cccc2cc(-c3nnc(NCc4ccco4)s3)c(=O)oc12 | inactive: -7.96% | 
CN(CCCNC(=O)c1cccc(N2CCCC2=O)c1)c1ccccc1 | inactive: -0.0343% | 
O=C(c1cccc(S(=O)(=O)N2CCN(c3ccccc3)CC2)c1)N1CCCC(C(F)(F)F)C1 (stereo unspecified) |  | inconclusive: 1.46 µM [inhibitor, partial curve, poor fit]
O=C(NCCCc1ccccc1)c1ccc(F)cc1 |  | inconclusive: 10 µM [activator, partial curve]
O=[N+]([O-])c1ccc(C=Nc2ccc(Cl)c([N+](=O)[O-])c2)s1 |  | inconclusive: 29.1 µM [inhibitor, single point]
O=C(NC(=O)c1ccccc1F)Nc1nc(-c2cccs2)cc(C(F)(F)F)n1 |  | inconclusive: 29.1 µM [inhibitor, single point]
CC(NC(=O)C1CCN(C(=O)c2ccc(F)cc2)CC1)c1ccc(S(N)(=O)=O)cc1 (stereo unspecified) | inactive: 8.74% | 
O=C(NCc1cccnc1)c1cc2nc(-c3cccs3)cc(C(F)(F)Cl)n2n1 |  | inconclusive: 16.4 µM [inhibitor, single point]
C/C(=N\OCC(=O)OCC(=O)NCc1ccccc1)c1ccc2c(c1)OCO2 | inactive: 7.22% | 
CC1(C)C(=O)Nc2ccccc2N1C(=O)COC(=O)Cc1ccc(Cl)c(Cl)c1 | inactive: -10.4% | 
CCCn1nnc(NC(=O)c2ccc(F)cc2)n1 |  | inconclusive: 18.4 µM [activator, single point]

Structure (SMILES) | activity change, negative = inhibition | Potency
CCCNc1c(NS(=O)(=O)c2ccc(C3CCCCC3)cc2)c(=O)oc2ccccc12 | inactive: 7.4% | 
COc1ccccc1NC(=O)CN1CCN(CC(=O)Nc2ccc3c(c2)OCCO3)CC1 |  | inconclusive: 5.8 µM [inhibitor, single point]
Cc1cc2[nH]c(=S)[nH]c2cc1C |  | inconclusive: 13 µM [activator, partial curve]
N#C/C(=C\c1ccc(F)cc1)c1nc(-c2ccco2)cs1 |  | inconclusive: 16.4 µM [activator, partial curve, poor fit]
C/C(=N\NC(=O)Cc1cccc2ccccc12)c1ccncc1 | inactive: -8.76% | 
Cc1ccc(C)c(S(=O)(=O)N2CCN(C(=O)[C@H](Cc3ccccc3)NC(=O)c3ccco3)CC2)c1 |  | inconclusive: 18.3 µM [inhibitor, partial curve]
CCOC(=O)C1=C(C)NC(=O)NC1/C(C)=C/c1ccccc1 (stereo unspecified) | inactive: 0.453% | 
Cc1cc(Cl)ccc1NC(=S)NCc1ccccc1 | inactive: 9.76% | 
CC1=[N+](C)c2ccc3ccccc3c2C1(C)C | inactive: 6.88% | 
N#C/C(=C/c1ccc(N2CCCCCC2)o1)c1ccc(Cl)cc1 |  | inconclusive: 7.31 µM [activator, partial curve]
Cn1c(SCc2nc3ccccc3[nH]2)nnc1-c1cccnc1 |  | inconclusive: 6.51 µM [inhibitor, single point]
O=[N+]([O-])c1ccc(N=Nc2ncc[nH]2)cc1 |  | inconclusive: 29.1 µM [inhibitor, single point]
C=C(C)C1CC=C(C)/C(=N/NC(=O)c2ccoc2C)C1 (stereo unspecified) |  | inconclusive: 29.1 µM [activator, single point]
COc1ccc(NC(=O)CN2CCC(C(=O)c3ccc(F)cc3)CC2)c(OC)c1 |  | inconclusive: 29.1 µM [inhibitor, single point]
O=C(O)CC(C(=O)O)N1C(=O)/C(=C/c2ccc(-c3nc4ccccc4s3)o2)SC1=S (stereo unspecified) | inactive: 23.9% | 
CC(C)CCN1CCN(Cc2cnc(N3CCCC3)s2)CC1CCO (stereo unspecified) | inactive: 7.84% | 
CCN(CC)S(=O)(=O)c1cc([N+](=O)[O-])ccc1N=Nc1c(O)[nH]c2ccccc12 |  | inconclusive: 5.17 µM [inhibitor, single point]
CCOc1ncccc1C(=O)OCC(=O)N1CCC(C)CC1 |  | inconclusive: 8.2 µM [activator, partial curve]
CC1CC(C)(C)Nc2ccc(OC(=O)c3ccco3)cc21 (stereo unspecified) |  | inconclusive: 15.8 µM [inhibitor, single point]
CC(c1ccccn1)N(C)C(=O)c1ccc2nc(Cc3cccc(Cl)c3)oc2c1 (stereo unspecified) |  | inconclusive: 4.11 µM [activator, single point]
CC1(c2ccc(Cl)cc2)NC(=O)N(CC(=O)NCc2ccc(F)cc2)C1=O (stereo unspecified) |  | inconclusive: 16.4 µM [inhibitor, partial curve, poor fit]
COc1ccc(NC(=O)Nc2cc(C)ccc2OC(F)F)c(OC)c1 |  | inconclusive: 20.6 µM [inhibitor, single point]
Oc1cccc(C(O)CNCc2ccc(-c3ccccc3)cc2)c1 (stereo unspecified) |  | inconclusive: 3.66 µM [inhibitor, partial curve, poor fit]
O=C(NCc1ccco1)c1ccccc1NC(=O)C1CC(=O)N(c2ccc(Cl)cc2)C1 (stereo unspecified) |  | inconclusive: 20.6 µM [inhibitor, partial curve, poor fit]

Structure (SMILES) | activity change, negative = inhibition | Potency
NS(=O)(=O)c1ccc(CCNC(=O)c2ccc(C#CC3(O)CCCCC3)cc2)cc1 |  | active: 6.51 µM
Cc1ccc2oc(-c3cccc(NC(=O)/C=C/c4cccc([N+](=O)[O-])c4)c3C)nc2c1 |  | inconclusive: 6.51 µM [activator, partial curve]
COc1ccc2[nH]c(-c3cccc(F)c3)cc(=O)c2c1 |  | inconclusive: 14.6 µM [activator, partial curve]
COc1ccc(-c2cc(-c3ccccc3)nc(NN)n2)cc1OC |  | inconclusive: 16.4 µM [inhibitor, single point]
COCCNS(=O)(=O)c1cc(C(=O)O)ccc1OC | inactive: 8.34% | 
CN(c1ccccc1)S(=O)(=O)c1cccc(NC(=O)CSc2n[nH]c(N)n2)c1 |  | active: 20.6 µM
COc1ccc(NC(=S)N2CCC(Cc3ccccc3)CC2)cc1 |  | inconclusive: 36.6 µM [inhibitor, single point]
CCOC(=O)Cc1csc(N/N=C\c2ccccc2OC)n1 | inactive: 13.3% | 
CCN1c2ccccc2-c2nc3ccccc3n2C1c1ccncc1 (stereo unspecified) | inactive: -19.1% | 
COc1ccc(Cc2nc(-c3ccc(-n4cccc4)cc3)no2)cc1OC |  | inconclusive: 16.4 µM [inhibitor, single point]
CCCc1cc(N2CCCC2)n2nc(C)c(-c3ccccc3)c2n1 | inactive: -10.7% | 
CCn1c(=NC(=O)c2ccco2)sc2cccc(F)c21 |  | inconclusive: 18.4 µM [activator, partial curve]
CCCN1C(=O)SC(CC(=O)Nc2ccccc2C)C1=O (stereo unspecified) |  | inconclusive: 13 µM [activator, single point]
COc1ccc(C)cc1NC(=O)/C=C/c1ccc(OC)c(S(=O)(=O)N2CCOCC2)c1 |  | inconclusive: 25.9 µM [inhibitor, single point]
CC(=O)Oc1c(C(=O)c2nnc(C)o2)c(=O)n(C)c2ccccc12 |  | inconclusive: 16.4 µM [inhibitor, partial curve, poor fit]
N/C(=N\c1nc2c(c(=O)[nH]1)CCC2)Nc1ccccc1C(F)(F)F |  | inconclusive: 35.5 µM [activator, single point]
COc1ccc(-c2nnc(SCC(C)C)o2)cc1 |  | inconclusive: 3.66 µM [activator, partial curve]
NS(=O)(=O)c1ccc(CCNCC(=O)N2CCC(Cc3ccccc3)CC2)cc1 | inconclusive: 59.7% [activator] | 
CC(Oc1ccccc1Cl)C(=O)Nc1ccc(S(=O)(=O)N2CCCC2)cc1 (stereo unspecified) |  | inconclusive: 23.1 µM [inhibitor, single point]
COc1ccc(NC(=O)c2ccccc2OCc2c(C)noc2C)cc1OC | inactive: 1.65% | 
O=C(c1ccco1)N1CCN(C(c2ccc(Cl)cc2)c2nnnn2Cc2ccccc2)CC1 (stereo unspecified) |  | inconclusive: 32.6 µM [inhibitor, single point]
Cc1nc2scc(-c3ccccc3)c2c(=O)n1/N=C/c1ccco1 |  | active: 14.6 µM
Cc1cc(C)c2cc(C#N)c(N3CCCN(C(=S)NCCCN(C)C)CC3)nc2c1 | inactive: 11.8% | 

In a second layout: 15 of the compounds above
Structure (SMILES)	activity change, negative = inhibition	Potency
NS(=O)(=O)c1ccc(CCNC(=O)c2ccc(C#CC3(O)CCCCC3)cc2)cc1		active: 6.51 µM
Cc1ccc2oc(-c3cccc(NC(=O)/C=C/c4cccc([N+](=O)[O-])c4)c3C)nc2c1		inconclusive: 6.51 µM [activator, partial curve]
CN(c1ccccc1)S(=O)(=O)c1cccc(NC(=O)CSc2n[nH]c(N)n2)c1		active: 20.6 µM
COc1ccc(NC(=S)N2CCC(Cc3ccccc3)CC2)cc1		inconclusive: 36.6 µM [inhibitor, single point]
COc1ccc(Cc2nc(-c3ccc(-n4cccc4)cc3)no2)cc1OC		inconclusive: 16.4 µM [inhibitor, single point]
CCCc1cc(N2CCCC2)n2nc(C)c(-c3ccccc3)c2n1	inactive: -10.7%	
CCn1c(=NC(=O)c2ccco2)sc2cccc(F)c21		inconclusive: 18.4 µM [activator, partial curve]
CCCN1C(=O)SC(CC(=O)Nc2ccccc2C)C1=O (stereo unspecified)		inconclusive: 13 µM [activator, single point]
CC(=O)Oc1c(C(=O)c2nnc(C)o2)c(=O)n(C)c2ccccc12		inconclusive: 16.4 µM [inhibitor, partial curve, poor fit]
N/C(=N\c1nc2c(c(=O)[nH]1)CCC2)Nc1ccccc1C(F)(F)F		inconclusive: 35.5 µM [activator, single point]
COc1ccc(-c2nnc(SCC(C)C)o2)cc1		inconclusive: 3.66 µM [activator, partial curve]
NS(=O)(=O)c1ccc(CCNCC(=O)N2CCC(Cc3ccccc3)CC2)cc1	inconclusive: 59.7% [activator]	
COc1ccc(NC(=O)c2ccccc2OCc2c(C)noc2C)cc1OC	inactive: 1.65%	
Cc1nc2scc(-c3ccccc3)c2c(=O)n1/N=C/c1ccco1		active: 14.6 µM
Cc1cc(C)c2cc(C#N)c(N3CCCN(C(=S)NCCCN(C)C)CC3)nc2c1	inactive: 11.8%	
